Laboratory results taken from article PMC7661038.
These are yes or no findings as the source states them, for the method shown. In cells and extracts the contact can be indirect. Some binding calls cover weakened binding; strength is not graded here. For some assays here: Where a sequence is shown, tags or fusion partners need not be part of it.

T1: N-terminal Dot1l (1-500aa) (mouse) (UniProt Q6XZL8)
T1 sequence: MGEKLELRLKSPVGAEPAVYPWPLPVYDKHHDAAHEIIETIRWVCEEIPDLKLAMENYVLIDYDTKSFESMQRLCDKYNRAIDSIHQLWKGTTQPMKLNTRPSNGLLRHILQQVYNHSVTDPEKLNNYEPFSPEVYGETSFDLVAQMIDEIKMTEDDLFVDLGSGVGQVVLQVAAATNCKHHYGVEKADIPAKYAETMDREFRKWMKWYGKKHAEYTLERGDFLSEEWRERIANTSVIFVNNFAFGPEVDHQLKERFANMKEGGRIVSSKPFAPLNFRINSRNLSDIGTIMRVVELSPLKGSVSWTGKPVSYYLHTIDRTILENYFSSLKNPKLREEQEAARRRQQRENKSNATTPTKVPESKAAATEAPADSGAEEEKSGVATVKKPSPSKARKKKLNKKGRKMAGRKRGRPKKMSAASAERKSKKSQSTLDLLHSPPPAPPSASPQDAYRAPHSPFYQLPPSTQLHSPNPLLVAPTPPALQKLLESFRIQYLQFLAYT

T2: Dot1l C-terminal domain (1001-1540aa) (mouse) (UniProt Q6XZL8)
T2 sequence: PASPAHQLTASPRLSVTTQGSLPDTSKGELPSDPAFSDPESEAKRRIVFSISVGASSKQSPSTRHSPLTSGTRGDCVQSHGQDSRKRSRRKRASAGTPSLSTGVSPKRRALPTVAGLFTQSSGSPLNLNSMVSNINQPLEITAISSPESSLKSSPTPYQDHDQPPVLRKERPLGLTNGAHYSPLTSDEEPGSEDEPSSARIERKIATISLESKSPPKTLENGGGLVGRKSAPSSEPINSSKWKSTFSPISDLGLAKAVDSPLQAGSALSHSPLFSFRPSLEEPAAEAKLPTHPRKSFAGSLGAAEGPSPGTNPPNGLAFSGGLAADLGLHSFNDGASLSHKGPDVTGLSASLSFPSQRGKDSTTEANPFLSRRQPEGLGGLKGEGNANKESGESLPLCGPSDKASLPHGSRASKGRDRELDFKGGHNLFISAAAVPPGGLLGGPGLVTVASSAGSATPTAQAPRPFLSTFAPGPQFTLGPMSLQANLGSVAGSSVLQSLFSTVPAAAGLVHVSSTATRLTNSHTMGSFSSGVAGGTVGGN

T3: Dot1l middle fragment (501-1000aa) (mouse) (UniProt Q6XZL8)
T3 sequence: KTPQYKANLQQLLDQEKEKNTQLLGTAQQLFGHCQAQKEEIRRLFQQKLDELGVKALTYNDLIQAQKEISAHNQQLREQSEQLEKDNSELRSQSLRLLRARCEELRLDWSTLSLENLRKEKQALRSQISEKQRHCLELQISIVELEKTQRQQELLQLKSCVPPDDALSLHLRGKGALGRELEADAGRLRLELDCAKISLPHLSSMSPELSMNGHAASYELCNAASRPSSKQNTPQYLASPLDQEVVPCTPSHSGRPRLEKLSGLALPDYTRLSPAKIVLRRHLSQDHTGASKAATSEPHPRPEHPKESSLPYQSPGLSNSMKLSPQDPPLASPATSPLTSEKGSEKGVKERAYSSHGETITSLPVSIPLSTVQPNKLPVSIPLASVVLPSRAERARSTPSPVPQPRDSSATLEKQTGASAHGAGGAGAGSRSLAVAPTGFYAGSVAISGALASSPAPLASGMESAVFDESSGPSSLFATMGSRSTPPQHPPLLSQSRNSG


How the values were obtained:
[1] = target: T1, N-terminal Dot1l (1-500aa) (mouse); assay: co-IP; lysates of HEK293 cells cotransfected with FLAG-tagged Zc3h10 and HA-tagged Dot1l (whole or truncated); IP buffer 20 mM Tris pH 7.4, 150 mM NaCl, 1 mM EDTA, 10% glycerol, 1% NP-40; 2 hr at 4°C with anti-FLAG M2 or anti-HA; immunoblot
[2] = target: T2, Dot1l C-terminal domain (1001-1540aa) (mouse); assay: as above
HA-Dot1l (mouse) = HA-Dot1l (mouse) (UniProt Q6XZL8); assay: as above
[3] = target: T3, Dot1l middle fragment (501-1000aa) (mouse); assay: as above
[4] = target: endogenous Dot1l (mouse (endogenous in BAT)) (UniProt Q6XZL8); assay: co-IP; endogenous proteins, nuclear extracts of BAT of wild-type mice (also mice housed at room temperature or 4°C); Dot1l or Zc3h10 antibody and protein A/G agarose beads overnight at 4°C; immunoblot

Row | binding [1] | binding [2] | binding (HA-Dot1l (mouse)) | binding [3] | binding [4] | Binder
1 | no binding | no binding | binds | binds | – | Flag-Zc3h10 (protein, UniProt Q8R205 1-435) MPDRDSYANGTGSSGGGPGGGGSEEASGAGTGSGGATSDAICRDFLRNVCKRGKRCRYRHPDMSEVSNLGVSKNEFIFCHDFQNKECSRPNCRFIHGSKEDEDGYKKTGELPPRLRQKVAAGLGLSPADLPNGKEEVPICRDFLKGDCQRGAKCKFRHLQRDFEFDARGGGGTGGGGSTGSAPPGRRHDLYDIYDLPERGFEDHEPGPKRRRGGCCPPDGPHFESYECNLAPLRGVECRLLEEENALLRKRVEELKKQVSNLLATNEVLLEQNAQFRNQAKVMTLSSTAPATEQTLAPTVGTVATFNHGIAQTHTTLSSQALQPRPVSQQELVAPTGAPAAPPTNAAPPAAPPPPPPHLNPEITPLSAALAQTIAQGMAPPPVSMAPVAVSVAPVAPVAVSMAQPLAGITMSHTTTPMVTYPIASQSMRITAMPH
2 | – | – | – | – | binds | endogenous Zc3h10 (protein, UniProt Q8R205 1-435) MPDRDSYANGTGSSGGGPGGGGSEEASGAGTGSGGATSDAICRDFLRNVCKRGKRCRYRHPDMSEVSNLGVSKNEFIFCHDFQNKECSRPNCRFIHGSKEDEDGYKKTGELPPRLRQKVAAGLGLSPADLPNGKEEVPICRDFLKGDCQRGAKCKFRHLQRDFEFDARGGGGTGGGGSTGSAPPGRRHDLYDIYDLPERGFEDHEPGPKRRRGGCCPPDGPHFESYECNLAPLRGVECRLLEEENALLRKRVEELKKQVSNLLATNEVLLEQNAQFRNQAKVMTLSSTAPATEQTLAPTVGTVATFNHGIAQTHTTLSSQALQPRPVSQQELVAPTGAPAAPPTNAAPPAAPPPPPPHLNPEITPLSAALAQTIAQGMAPPPVSMAPVAVSVAPVAPVAVSMAQPLAGITMSHTTTPMVTYPIASQSMRITAMPH
